Results deposited as PubChem BioAssay AID652272 (Drosophila RNAi Screening Center, 2013)

Assay: 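Genes whose knock-down decreases or increases Hedgehog reporter output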 (primary screen)
Cells: Drosophila clone 8 (Cl8) cells
Reagents: long dsRNA against Drosophila genes
Read-out: 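Plate reader light from a firefly reporter under a ptc promoter fragment that responds to Hedgehog, with Renilla light as transfection reference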
Reading the numbers: firefly Hh reporter signal: higher = more ptc reporter light; Renilla reference signal: higher = more Renilla control light
Hit rule: 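Hit when the z-score averaged over two replicates is under -2 or over +3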
Calls: active = hit: reporter lowered or raised; inactive = not a hit
In all, the deposit lists about 21,000 reagents; shown is a random part of those with a known target gene and a result. Over the whole deposit, 503 (2.4%) are marked active. 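Raw plate light values, not normalised; calls rest on replicate z-scores that were not deposited; hits include reporter decreases as well as increases.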 Names joined by + are all predicted targets of the reagent. The record does not give: the amount of reagent, the time to read-out.

Gene	amplicon	firefly Hh reporter signal, replicate 1	firefly Hh reporter signal, replicate 2	firefly Hh reporter signal, replicate 3	Renilla reference signal, replicate 1	Renilla reference signal, replicate 2	activity call
Cbp20	DRSC16601	4.00e5	55468		28056	2088	inactive
CG15754	DRSC19719	56828	2.17e5		1369	7861	inactive
pip	DRSC11382	68762	81132		2562	2272	inactive
shtd	DRSC20166	1.71e5	98551		3722	2308	inactive
Lrch	DRSC02996	1.24e5	77563		4425	2547	inactive
Cyp18a1	DRSC20235	69665	2.79e5		1497	11334	inactive
ATP8B	DRSC12883	50560	2.78e5		12470	6683	inactive
ATP8B	DRSC14961	70615	1.32e5		1889	3164	inactive
CG30393	DRSC04253	99698	82714		2377	6182	inactive
Pis	DRSC20178	78921	2.04e5		1664	9384	inactive
CG13833	DRSC14683	5.14e5	74193		25619	2328	inactive
CG33310	DRSC01897	79584	58841		2218	5814	inactive
Atg10 + CG12822	DRSC06796	71461	48528		1852	4392	inactive
AOX4	DRSC15337	77112	82192		2016	1908	inactive
CG32628 (retired record)	DRSC19405	95233	2.84e5		3000	12834	inactive
LanB1	DRSC03360	91877	58199		3344	2546	inactive
CG15386 + CG42371	DRSC00400	1.09e5	87444		2708	2234	inactive
br	DRSC17691	4.66e5	2.09e5		24064	4129	inactive
br	DRSC17789	72253	1.66e5		3171	8187	inactive
br	DRSC18743	74172	1.43e5		2262	6548	inactive
br	DRSC18744	43559	64080		1176	3232	inactive
Teh4	DRSC08457	74296	45046		1588	3296	inactive
CG4714	DRSC06883	78048	66641		3148	2288	inactive
rols	DRSC09873	47696	42646	51239	4374	3380	inactive
rols	DRSC10254	17744	50332	44672	4336	3031	inactive
rols	DRSC10536	42257	40851	48858	3777	3465	inactive
CCKLR-17D3	DRSC20015	1.10e5	2.41e5		1584	11597	inactive
CCKLR-17D3	DRSC20017	59912	1.59e5		880	6625	inactive
CG1575	DRSC18069	89389	75204		2528	1873	inactive
Acf	DRSC14101	69395	94469		1722	2944	inactive
Rab3	DRSC07523	1.47e5	1.01e5		6165	4473	inactive
CG12702	DRSC19487	58020	1.21e5		1277	5770	inactive
Ir93a	DRSC15212	1.42e5	86896		5821	3060	inactive
Ir93a	DRSC15213	7.56e5	1.25e5		37744	3205	inactive
Hyccin	DRSC06983	94002	98346		4312	4054	inactive
CG34345	DRSC02126	72149	61241		1715	5915	inactive
RpL35	DRSC18347	27781	59185		2147	6176	active
Hers + amn	DRSC20306	75223	1.63e5		1305	7994	inactive
Hr51	DRSC06627	1.29e5	99424		3333	5675	inactive
CG2983	DRSC00558	1.69e5	1.13e5		3952	3229	inactive
CG31709	DRSC01081	5.55e5	2.79e5		27522	11320	inactive
CG31562 (retired record)	DRSC12273	98983	1.66e5		3920	4022	inactive
CG31562 (retired record)	DRSC12274	94696	1.11e5		3672	3126	inactive
TBPH	DRSC04660	64720	59031		2688	2443	inactive
Takl1	DRSC13443	43648	1.92e5		9473	4316	inactive
dpr10	DRSC09015	99824	1.59e5		3239	8512	inactive
dpr10	DRSC09018	1.58e5	2.91e5		4357	13210	inactive
dpr10	DRSC10159	46013	86009	55380	7462	3205	inactive
dpr10	DRSC10160	63764	58374	66556	5813	3753	inactive
HemK1	DRSC03253	64160	98624		2802	3888	inactive
RpS27	DRSC14244	2.74e5	37289		21232	2341	active
neb	DRSC03577	85930	61042		2695	2301	inactive
Coop	DRSC06604	1.38e5	72122		5476	1964	inactive
Pat1	DRSC17750	95616	72701		2468	1773	inactive
Gmer	DRSC04376	1.08e5	58338		4256	2403	inactive
CG8891	DRSC03120	1.37e5	66659		3469	5688	inactive
ppk21	DRSC14466	72345	85833		2380	2307	inactive
CG16952	DRSC19759	55529	10540		1852	432	inactive
CG4459	DRSC15582	8.45e5	1.68e5		44499	4450	inactive
l(2)gd1	DRSC02773	52819	58168		2912	2464	inactive
Non1	DRSC05954	40955	14604		2685	853	inactive
CG16995	DRSC00480	1.09e5	98043		2704	2274	inactive
Pih1D1	DRSC02897	1.18e5	1.05e5		4848	4551	inactive
CG1598	DRSC06598	1.31e5	61531		2746	4370	inactive
CG14630	DRSC18166	71661	1.39e5		2245	5760	inactive
CG14630	DRSC18653	69648	1.18e5		2320	5538	inactive
PGRP-SB1	DRSC11090	1.18e5			1010	3456	inactive
CG3021	DRSC18165	55420	1.33e5		1517	5430	inactive
CG3021	DRSC18652	1.11e5	4.13e5		4306	16184	inactive
AP-2sigma	DRSC15957	5.08e5	1.82e5		25936	3869	inactive
Cad74A	DRSC10636	1.21e5			731	3411	inactive
Ncoa6	DRSC02353	24386	14870		1780	906	active
Pgam5	DRSC18551	1.36e5	1.01e5		2960	2898	inactive
